Article PMC4032575
These are yes or no findings as the source states them, for the method shown. Binding seen in cells or lysates may run through a third protein. Some results given as binding are weak or reduced against the parent protein; the word gives no strength.

The chains behind the UniProt entries cited, without tags or fusion partners. Where a name states a change or a piece, a line headed by the entry shows the natural chain unless it says otherwise. A line that says so, or that is headed by a name, gives the form on record, which may keep a tag or linker.
UniProt Q23985: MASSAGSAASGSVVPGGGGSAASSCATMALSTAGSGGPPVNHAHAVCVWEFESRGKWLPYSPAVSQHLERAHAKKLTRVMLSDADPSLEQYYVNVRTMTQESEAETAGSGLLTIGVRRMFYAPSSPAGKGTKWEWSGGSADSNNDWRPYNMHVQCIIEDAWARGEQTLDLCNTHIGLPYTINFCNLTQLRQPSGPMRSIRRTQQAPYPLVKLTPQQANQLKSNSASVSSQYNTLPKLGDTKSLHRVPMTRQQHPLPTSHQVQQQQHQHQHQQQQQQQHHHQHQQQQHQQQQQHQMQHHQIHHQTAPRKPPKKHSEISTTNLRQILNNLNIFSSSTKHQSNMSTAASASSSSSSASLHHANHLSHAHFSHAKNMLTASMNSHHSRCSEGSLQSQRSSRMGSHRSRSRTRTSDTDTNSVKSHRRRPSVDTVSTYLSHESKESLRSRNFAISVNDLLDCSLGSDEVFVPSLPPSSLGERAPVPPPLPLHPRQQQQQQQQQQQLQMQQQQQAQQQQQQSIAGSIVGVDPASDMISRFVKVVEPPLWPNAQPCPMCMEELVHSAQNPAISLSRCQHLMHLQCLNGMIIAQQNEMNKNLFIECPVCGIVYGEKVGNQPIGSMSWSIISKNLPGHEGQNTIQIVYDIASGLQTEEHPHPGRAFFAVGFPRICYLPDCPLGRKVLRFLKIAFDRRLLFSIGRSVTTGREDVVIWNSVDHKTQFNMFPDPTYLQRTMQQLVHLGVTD
Notch D505A (N^D505A) (P07207, form named): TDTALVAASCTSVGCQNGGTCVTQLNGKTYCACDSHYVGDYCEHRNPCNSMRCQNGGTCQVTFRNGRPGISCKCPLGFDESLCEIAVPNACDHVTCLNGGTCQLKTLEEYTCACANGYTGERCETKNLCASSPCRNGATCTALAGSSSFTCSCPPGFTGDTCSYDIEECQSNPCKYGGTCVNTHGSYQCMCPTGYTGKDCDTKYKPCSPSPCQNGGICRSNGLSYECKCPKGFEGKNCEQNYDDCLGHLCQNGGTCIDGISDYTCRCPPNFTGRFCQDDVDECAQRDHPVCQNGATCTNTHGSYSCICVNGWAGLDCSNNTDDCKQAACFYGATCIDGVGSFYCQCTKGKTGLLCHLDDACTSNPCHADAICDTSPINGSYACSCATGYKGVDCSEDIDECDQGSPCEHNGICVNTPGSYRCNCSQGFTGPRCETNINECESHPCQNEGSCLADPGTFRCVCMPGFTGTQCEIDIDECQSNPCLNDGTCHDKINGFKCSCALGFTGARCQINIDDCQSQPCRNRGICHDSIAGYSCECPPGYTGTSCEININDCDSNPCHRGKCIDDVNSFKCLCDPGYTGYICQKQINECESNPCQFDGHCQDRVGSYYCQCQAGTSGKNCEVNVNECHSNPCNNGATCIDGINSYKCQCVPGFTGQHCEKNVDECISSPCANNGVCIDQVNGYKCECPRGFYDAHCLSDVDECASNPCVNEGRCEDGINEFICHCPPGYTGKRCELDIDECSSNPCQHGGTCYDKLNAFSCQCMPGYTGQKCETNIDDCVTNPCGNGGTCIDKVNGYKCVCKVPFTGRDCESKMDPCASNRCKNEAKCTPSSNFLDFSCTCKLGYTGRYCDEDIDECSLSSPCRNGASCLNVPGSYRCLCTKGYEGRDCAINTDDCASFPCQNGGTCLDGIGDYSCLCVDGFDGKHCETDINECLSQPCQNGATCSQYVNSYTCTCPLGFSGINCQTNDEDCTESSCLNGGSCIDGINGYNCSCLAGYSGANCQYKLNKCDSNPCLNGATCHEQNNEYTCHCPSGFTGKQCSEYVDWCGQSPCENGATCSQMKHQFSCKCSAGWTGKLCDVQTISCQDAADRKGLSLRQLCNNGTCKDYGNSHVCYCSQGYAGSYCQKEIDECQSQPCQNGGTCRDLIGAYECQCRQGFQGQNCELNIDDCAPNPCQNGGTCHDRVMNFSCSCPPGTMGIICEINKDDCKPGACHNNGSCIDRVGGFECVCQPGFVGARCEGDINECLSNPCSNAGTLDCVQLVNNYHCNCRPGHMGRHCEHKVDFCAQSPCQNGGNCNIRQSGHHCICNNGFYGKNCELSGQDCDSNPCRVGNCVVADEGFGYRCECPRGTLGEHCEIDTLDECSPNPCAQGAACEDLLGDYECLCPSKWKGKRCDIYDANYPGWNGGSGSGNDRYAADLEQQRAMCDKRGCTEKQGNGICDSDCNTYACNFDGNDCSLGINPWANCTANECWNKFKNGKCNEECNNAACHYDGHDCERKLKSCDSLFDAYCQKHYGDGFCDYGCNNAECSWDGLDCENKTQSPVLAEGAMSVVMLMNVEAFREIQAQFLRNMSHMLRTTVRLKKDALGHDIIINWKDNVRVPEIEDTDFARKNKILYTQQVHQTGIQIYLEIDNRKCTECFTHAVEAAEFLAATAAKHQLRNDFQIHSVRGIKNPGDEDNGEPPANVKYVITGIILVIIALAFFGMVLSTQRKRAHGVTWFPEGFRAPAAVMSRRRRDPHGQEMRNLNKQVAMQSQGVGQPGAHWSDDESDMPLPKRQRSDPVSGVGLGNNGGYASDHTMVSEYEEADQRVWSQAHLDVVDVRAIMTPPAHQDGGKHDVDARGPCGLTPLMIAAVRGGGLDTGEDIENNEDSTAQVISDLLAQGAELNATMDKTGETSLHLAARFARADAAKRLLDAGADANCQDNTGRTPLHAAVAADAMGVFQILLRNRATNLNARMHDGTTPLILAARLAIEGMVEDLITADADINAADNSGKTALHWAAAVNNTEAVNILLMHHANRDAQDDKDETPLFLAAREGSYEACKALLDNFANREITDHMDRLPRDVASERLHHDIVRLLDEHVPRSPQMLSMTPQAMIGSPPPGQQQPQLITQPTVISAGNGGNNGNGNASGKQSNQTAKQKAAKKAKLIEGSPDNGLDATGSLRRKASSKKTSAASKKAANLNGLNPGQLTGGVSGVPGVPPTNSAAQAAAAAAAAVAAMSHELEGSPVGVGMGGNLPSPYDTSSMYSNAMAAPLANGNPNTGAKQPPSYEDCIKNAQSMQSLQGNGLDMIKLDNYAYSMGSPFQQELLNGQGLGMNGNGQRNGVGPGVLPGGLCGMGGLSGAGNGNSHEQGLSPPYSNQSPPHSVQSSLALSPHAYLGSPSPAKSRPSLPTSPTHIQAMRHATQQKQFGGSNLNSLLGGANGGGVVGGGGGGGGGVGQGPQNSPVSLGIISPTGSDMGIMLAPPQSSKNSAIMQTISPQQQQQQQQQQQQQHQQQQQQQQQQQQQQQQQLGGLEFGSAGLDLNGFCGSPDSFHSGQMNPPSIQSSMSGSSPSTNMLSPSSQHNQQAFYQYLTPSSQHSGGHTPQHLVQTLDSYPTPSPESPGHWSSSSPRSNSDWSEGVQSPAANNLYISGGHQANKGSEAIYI
Notch R2027A (N^R2027A) (P07207, form named): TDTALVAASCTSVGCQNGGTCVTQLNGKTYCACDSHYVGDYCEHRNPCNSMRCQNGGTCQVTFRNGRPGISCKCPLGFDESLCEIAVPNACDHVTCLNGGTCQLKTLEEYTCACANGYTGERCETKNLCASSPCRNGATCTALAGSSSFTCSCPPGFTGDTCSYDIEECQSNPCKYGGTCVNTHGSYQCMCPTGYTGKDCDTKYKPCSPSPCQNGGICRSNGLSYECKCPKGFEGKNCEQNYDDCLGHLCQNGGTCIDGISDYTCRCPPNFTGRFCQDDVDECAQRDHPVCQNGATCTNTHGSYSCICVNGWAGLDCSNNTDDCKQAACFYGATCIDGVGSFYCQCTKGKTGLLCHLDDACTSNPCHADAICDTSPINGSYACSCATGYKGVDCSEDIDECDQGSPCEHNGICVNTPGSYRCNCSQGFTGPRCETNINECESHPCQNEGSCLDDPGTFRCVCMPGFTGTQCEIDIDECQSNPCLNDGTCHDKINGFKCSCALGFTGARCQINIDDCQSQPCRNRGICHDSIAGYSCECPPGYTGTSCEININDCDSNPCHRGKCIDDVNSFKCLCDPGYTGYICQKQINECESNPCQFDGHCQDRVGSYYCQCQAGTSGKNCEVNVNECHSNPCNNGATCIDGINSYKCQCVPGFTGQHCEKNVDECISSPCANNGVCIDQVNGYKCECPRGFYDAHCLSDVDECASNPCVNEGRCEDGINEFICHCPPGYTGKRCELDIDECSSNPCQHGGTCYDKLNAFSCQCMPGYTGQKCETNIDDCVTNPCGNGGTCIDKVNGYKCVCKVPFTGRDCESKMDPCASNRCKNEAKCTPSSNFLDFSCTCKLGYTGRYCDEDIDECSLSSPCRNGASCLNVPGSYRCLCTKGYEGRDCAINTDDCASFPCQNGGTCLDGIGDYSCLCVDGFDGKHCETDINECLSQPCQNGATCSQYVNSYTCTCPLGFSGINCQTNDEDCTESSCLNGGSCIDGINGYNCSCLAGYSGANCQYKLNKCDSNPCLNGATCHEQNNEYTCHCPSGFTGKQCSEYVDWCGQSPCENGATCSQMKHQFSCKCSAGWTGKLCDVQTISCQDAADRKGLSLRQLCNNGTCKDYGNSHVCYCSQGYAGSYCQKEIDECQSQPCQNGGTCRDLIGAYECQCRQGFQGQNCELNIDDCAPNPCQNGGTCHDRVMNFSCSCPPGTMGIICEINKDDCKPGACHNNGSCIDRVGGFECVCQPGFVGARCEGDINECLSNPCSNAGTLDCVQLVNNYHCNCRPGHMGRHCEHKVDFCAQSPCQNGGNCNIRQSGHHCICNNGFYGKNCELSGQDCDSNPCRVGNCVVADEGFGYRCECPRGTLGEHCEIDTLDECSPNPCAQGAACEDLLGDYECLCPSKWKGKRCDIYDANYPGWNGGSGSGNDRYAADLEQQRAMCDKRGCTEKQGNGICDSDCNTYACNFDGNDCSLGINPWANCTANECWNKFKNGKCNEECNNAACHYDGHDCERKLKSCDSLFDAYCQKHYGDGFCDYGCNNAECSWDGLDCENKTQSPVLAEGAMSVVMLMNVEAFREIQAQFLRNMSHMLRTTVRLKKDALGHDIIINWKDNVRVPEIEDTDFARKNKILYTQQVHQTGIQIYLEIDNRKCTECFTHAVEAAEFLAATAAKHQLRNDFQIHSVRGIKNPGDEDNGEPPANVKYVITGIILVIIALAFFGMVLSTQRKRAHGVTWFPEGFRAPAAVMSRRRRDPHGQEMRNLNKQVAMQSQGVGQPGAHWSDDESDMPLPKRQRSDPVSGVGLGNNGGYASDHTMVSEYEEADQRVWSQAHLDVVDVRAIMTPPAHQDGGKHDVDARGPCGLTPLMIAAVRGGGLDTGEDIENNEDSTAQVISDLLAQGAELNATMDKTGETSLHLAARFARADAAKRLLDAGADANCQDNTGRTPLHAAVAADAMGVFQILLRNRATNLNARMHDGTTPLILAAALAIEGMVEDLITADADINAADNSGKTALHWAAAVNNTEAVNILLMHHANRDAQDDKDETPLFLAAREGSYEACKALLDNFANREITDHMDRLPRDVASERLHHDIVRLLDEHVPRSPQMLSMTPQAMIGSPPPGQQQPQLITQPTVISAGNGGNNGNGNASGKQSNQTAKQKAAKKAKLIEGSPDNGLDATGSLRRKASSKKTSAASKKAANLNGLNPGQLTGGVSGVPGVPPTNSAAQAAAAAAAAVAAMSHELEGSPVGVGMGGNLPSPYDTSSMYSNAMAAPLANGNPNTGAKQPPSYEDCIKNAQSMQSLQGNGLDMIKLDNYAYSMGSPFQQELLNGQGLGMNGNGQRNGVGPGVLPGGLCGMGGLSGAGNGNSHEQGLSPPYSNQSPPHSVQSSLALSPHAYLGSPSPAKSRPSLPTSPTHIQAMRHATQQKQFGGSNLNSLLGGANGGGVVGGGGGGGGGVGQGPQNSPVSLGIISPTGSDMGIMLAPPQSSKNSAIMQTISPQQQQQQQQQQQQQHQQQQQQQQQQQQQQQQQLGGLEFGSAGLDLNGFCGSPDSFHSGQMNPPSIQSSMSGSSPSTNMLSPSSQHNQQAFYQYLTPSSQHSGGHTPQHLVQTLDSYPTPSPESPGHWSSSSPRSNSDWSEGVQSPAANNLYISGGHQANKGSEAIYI

Biological target: Venus-Deltex (Venus-Dx) (Drosophila) (UniProt Q23985)
Assay: co-IP; S2 cells co-transfected with pMT-N constructs and pMT-Venus-Dx; lysate in 50 mM Tris-HCl pH 8.0, 150 mM NaCl, 1% Triton X-100, 1 mM CaCl2; Venus-Dx captured on GFP-TRAP agarose 1 hr at 4°C, washed 4 times; Western blot

binding	Substance
binds	Notch D505A (N^D505A) (from UniProt P07207 53-2703) (receptor)
no binding	Notch R2027A (N^R2027A) (from UniProt P07207 53-2703) (receptor)
